According to patent publication US20140087945A1, “SUBSTITUTED 4-CYAN-3-(2,6-DIFLUOROPHENYL)-4-PHENYLBUTANOATES, METHOD FOR THE PRODUCTION THEREOF AND USE THEREOF AS HERBICIDES AND PLANT GROWTH REGULATORS” (Bayer Intellectual Property GmbH, priority 2011, published 2014):
Some results were stated once for a whole list of compounds, not compound by compound. Some ranges recur; such a range may be that of the whole group of compounds.

Columns and labels:
Format in all cases: in vivo
Alopecurus myosuroides [1] = assay: Herbicidal pre-emergence action
Echinochloa crus galli = assay: Herbicidal pre-emergence action
Setaria viridis [2] = assay: Herbicidal pre-emergence action
Veronica persica = assay: Herbicidal pre-emergence action
Viola tricolor [3] = assay: Herbicidal pre-emergence action
Stellaria media [4] = assay: Herbicidal pre-emergence action; conditions: 0.32 kg of active substance per hectare, scored visually after about 3 weeks
Amaranthus retroflexus [5] = assay: Herbicidal pre-emergence action; conditions: 0.32 kg of active substance per hectare, scored visually after about 3 weeks
Polygonum convolvulus [6] = assay: Herbicidal pre-emergence action
Avena fatua = assay: Herbicidal post-emergence action
Echinochloa crus-galli = assay: Herbicidal post-emergence action; conditions: 0.32 kg of active substance per hectare, rated visually after about 3 weeks
Amaranthus retroflexus [7] = assay: Herbicidal post-emergence action; conditions: 0.32 kg of active substance per hectare, rated visually after about 3 weeks
Stellaria media [8] = assay: Herbicidal post-emergence action; conditions: 0.32 kg of active substance per hectare, rated visually after about 3 weeks
Viola tricolor [9] = assay: Herbicidal post-emergence action
wheat = assay: Crop plant compatibility, pre-emergence; conditions: 80 g/ha
corn = assay: Crop plant compatibility, pre-emergence; conditions: 80 g/ha
oilseed rape [10] = assay: Crop plant compatibility, pre-emergence; conditions: 80 g/ha
oilseed rape [11] = assay: Crop plant compatibility, post-emergence; conditions: 80 g/ha
Lolium multiflorum [12] = assay: Herbicidal pre-emergence action; conditions: 0.32 kg of active substance per hectare, scored visually after about 3 weeks
Pharbitis purpureum = assay: Herbicidal post-emergence action; conditions: 0.32 kg of active substance per hectare, rated visually after about 3 weeks
Alopecurus myosuroides [13] = assay: Herbicidal post-emergence action; conditions: 0.32 kg of active substance per hectare, rated visually after about 3 weeks
Setaria viridis [14] = assay: Herbicidal post-emergence action; conditions: 0.32 kg of active substance per hectare, rated visually after about 3 weeks
Polygonum convolvulus [15] = assay: Herbicidal post-emergence action; conditions: 0.32 kg of active substance per hectare, rated visually after about 3 weeks
Lolium multiflorum [16] = assay: Herbicidal post-emergence action; conditions: 0.32 kg of active substance per hectare, rated visually after about 3 weeks
[17] = 0.32 kg of active substance per hectare, scored visually after about 3 weeks
[18] = 0.32 kg of active substance per hectare, rated visually after about 3 weeks

Structure (SMILES)	herbicidal activity (Alopecurus myosuroides [1]; [17])	herbicidal activity (Echinochloa crus galli; [17])	herbicidal activity (Echinochloa crus galli; 80 g/ha)	herbicidal activity (Setaria viridis [2]; [17])	herbicidal activity (Setaria viridis [2]; 80 g/ha)	herbicidal activity (Veronica persica; [17])	herbicidal activity (Veronica persica; 80 g/ha)	herbicidal activity (Viola tricolor [3]; [17])	herbicidal activity (Viola tricolor [3]; 80 g/ha)	herbicidal activity (Stellaria media [4])	herbicidal activity (Amaranthus retroflexus [5])	herbicidal activity (Polygonum convolvulus [6]; [17])	herbicidal activity (Avena fatua; [18])	herbicidal activity (Echinochloa crus-galli)	herbicidal activity (Amaranthus retroflexus [7])	herbicidal activity (Stellaria media [8])	herbicidal activity (Viola tricolor [9]; [18])	damage (selectivity in wheat: no damage or up to 20% damage) (wheat)	damage (selectivity in oilseed rape: no damage or up to 20% damage) (oilseed rape [10])	herbicidal activity (Lolium multiflorum [12])	other results
COC(=O)CC(c1c(F)cccc1F)C(C#N)c1ccc(F)cc1 (mixture of isomers) [Example 1-3]	90-100%	90-100%	80 to 100%	90-100%	80 to 100%	90-100%	80 to 100%	90-100%	80 to 100%	90-100%	90-100%	90-100%	80-100%	80-100%	80-100%	80-100%	80-100%	up to 20%	up to 20%	–	herbicidal activity (Alopecurus myosuroides [1]; 80 g/ha): 80 to 100%; herbicidal activity (Polygonum convolvulus [6]; 80 g/ha): 80 to 100%; herbicidal activity (Avena fatua; 80 g/ha): 80 to 100%; herbicidal activity (Viola tricolor [9]; 80 g/ha): 80 to 100%; damage (selectivity in corn: no damage or up to 20% damage) (corn): up to 20%; damage (selectivity in oilseed rape: no damage or up to 20% damage) (oilseed rape [11]): up to 20%
COC(=O)CC(c1c(F)cccc1F)C(C#N)c1ccc(F)c(Cl)c1 (mixture of isomers) [Example 1-15]	90-100%	90-100%	80 to 100%	90-100%	80 to 100%	90-100%	80 to 100%	90-100%	80 to 100%	90-100%	90-100%	90-100%	80-100%	80-100%	–	–	–	–	up to 20%	90-100%	herbicidal activity (Polygonum convolvulus [6]; 80 g/ha): 80 to 100%; herbicidal activity (Pharbitis purpureum): 80-100%; damage (selectivity in corn: no damage or up to 20% damage) (corn): up to 20%
COC(=O)C[C@@H](c1c(F)cccc1F)[C@@H](C#N)c1ccc(F)c(F)c1 [Example 2-11, Methyl (3R,4R)-4-cyano-3-(2,6-difluorophenyl)-4-(3,4-difluorophenyl)-butanoate]	90-100%	90-100%	–	90-100%	–	90-100%	80 to 100%	90-100%	80 to 100%	90-100%	90-100%	90-100%	80-100%	80-100%	–	–	–	–	up to 20%	90-100%	herbicidal activity (Alopecurus myosuroides [13]): 80-100%; herbicidal activity (Setaria viridis [14]): 80-100%; herbicidal activity (Polygonum convolvulus [15]): 80-100%; herbicidal activity (Lolium multiflorum [16]): 80-100%; herbicidal activity (Pharbitis purpureum): 80-100%
COC(=O)CC(c1c(F)cccc1F)C(C#N)c1ccc(F)c(F)c1 (stereo not drawn) [Example 1-231, methyl threo-4-cyano-3-(2,6-difluorophenyl)-4-(3,4-difluorophenyl)-butanoate]	90-100%	90-100%	80 to 100%	90-100%	80 to 100%	–	–	–	80 to 100%	90-100%	–	–	–	–	–	–	–	–	up to 20%	90-100%	damage (selectivity in corn: no damage or up to 20% damage) (corn): up to 20%
COC(=O)CC(c1c(F)cccc1F)C(C#N)c1ccc(Cl)c(F)c1 (mixture of isomers) [Example 1-14]	–	–	–	–	–	–	–	–	80 to 100%	–	–	–	–	–	–	–	–	up to 20%	–	–	–
COC(=O)CC(c1c(F)cccc1F)C(C#N)c1cc(F)cc(F)c1 (mixture of isomers) [Example 1-12]	90-100%	90-100%	–	90-100%	–	90-100%	80 to 100%	90-100%	80 to 100%	90-100%	90-100%	90-100%	–	–	80-100%	80-100%	80-100%	–	up to 20%	90-100%	herbicidal activity (Alopecurus myosuroides [13]): 80-100%; herbicidal activity (Setaria viridis [14]): 80-100%; herbicidal activity (Polygonum convolvulus [15]): 80-100%; herbicidal activity (Lolium multiflorum [16]): 80-100%; herbicidal activity (Viola tricolor [9]; 80 g/ha): 80 to 100%; damage (selectivity in oilseed rape: no damage or up to 20% damage) (oilseed rape [11]): up to 20%
COC(=O)CC(c1c(F)cccc1F)C(C#N)c1ccc(F)c(C#N)c1 (mixture of isomers) [Example 1-233]	90-100%	90-100%	80 to 100%	90-100%	80 to 100%	–	–	–	80 to 100%	90-100%	90-100%	90-100%	80-100%	80-100%	80-100%	80-100%	80-100%	up to 20%	–	90-100%	herbicidal activity (Alopecurus myosuroides [1]; 80 g/ha): 80 to 100%; herbicidal activity (Alopecurus myosuroides [13]): 80-100%; herbicidal activity (Setaria viridis [14]): 80-100%; herbicidal activity (Polygonum convolvulus [15]): 80-100%; herbicidal activity (Lolium multiflorum [16]): 80-100%; herbicidal activity (Avena fatua; 80 g/ha): 80 to 100%; herbicidal activity (Viola tricolor [9]; 80 g/ha): 80 to 100%; herbicidal activity (Pharbitis purpureum): 80-100%; damage (selectivity in oilseed rape: no damage or up to 20% damage) (oilseed rape [11]): up to 20%
COC(=O)CC(c1c(F)cccc1F)C(C#N)c1ccc(OC)cc1 (mixture of isomers) [Example 1-26]	–	–	–	–	–	–	80 to 100%	–	–	90-100%	–	–	–	–	–	–	–	up to 20%	–	–	–
COC(=O)CC(c1c(F)cccc1F)C(C#N)c1ccc(F)c(F)c1 (stereo not drawn) [Example 1-230, methyl erythro-4-cyano-3-(2,6-difluorophenyl)-4-(3,4-difluorophenyl)butanoate]	–	–	–	–	–	–	80 to 100%	–	–	–	–	–	–	–	–	–	–	up to 20%	–	–	–
